Results published in patent US12296019 (dated 2025).

Assay: peptide synthesis
Settings: whole synthesis, analytical HPLC

## norbornene-PEG8-Asp-Cys*-Ala-Trp-His-Lys-Gly-Glu-Leu-Val-Trp-Cys*-Thr-NH2
  final HPLC purity: purity of 90% or more
